In patent US20030162221A1:
No constants are given. Whether binding was seen depends on the method and setting. In cells and extracts the contact can be indirect. Some binding calls cover weakened binding; strength is not graded here. For part of these data: Sequences can lack the tags named with a protein.

Amino acid sequences for entries named in this document (tags omitted). Residues count along the entry.
UniProt P00546, residues 2-298: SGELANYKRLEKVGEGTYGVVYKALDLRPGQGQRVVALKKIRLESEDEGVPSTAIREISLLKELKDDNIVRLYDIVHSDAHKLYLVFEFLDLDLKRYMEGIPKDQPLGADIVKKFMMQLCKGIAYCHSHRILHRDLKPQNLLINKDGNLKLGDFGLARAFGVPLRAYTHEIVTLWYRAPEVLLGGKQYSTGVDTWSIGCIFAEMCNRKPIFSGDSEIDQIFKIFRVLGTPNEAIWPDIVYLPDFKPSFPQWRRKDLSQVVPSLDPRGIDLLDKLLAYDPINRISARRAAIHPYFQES

T1: Cks1 (Saccharomyces cerevisiae) (UniProt P20486)
T1 sequence (looked up): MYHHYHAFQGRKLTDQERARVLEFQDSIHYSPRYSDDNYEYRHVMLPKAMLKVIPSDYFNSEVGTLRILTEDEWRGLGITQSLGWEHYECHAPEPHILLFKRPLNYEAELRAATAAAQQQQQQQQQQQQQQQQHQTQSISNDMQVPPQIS

T2: Clb2 (Saccharomyces cerevisiae) (UniProt P24869)
T2 sequence (looked up): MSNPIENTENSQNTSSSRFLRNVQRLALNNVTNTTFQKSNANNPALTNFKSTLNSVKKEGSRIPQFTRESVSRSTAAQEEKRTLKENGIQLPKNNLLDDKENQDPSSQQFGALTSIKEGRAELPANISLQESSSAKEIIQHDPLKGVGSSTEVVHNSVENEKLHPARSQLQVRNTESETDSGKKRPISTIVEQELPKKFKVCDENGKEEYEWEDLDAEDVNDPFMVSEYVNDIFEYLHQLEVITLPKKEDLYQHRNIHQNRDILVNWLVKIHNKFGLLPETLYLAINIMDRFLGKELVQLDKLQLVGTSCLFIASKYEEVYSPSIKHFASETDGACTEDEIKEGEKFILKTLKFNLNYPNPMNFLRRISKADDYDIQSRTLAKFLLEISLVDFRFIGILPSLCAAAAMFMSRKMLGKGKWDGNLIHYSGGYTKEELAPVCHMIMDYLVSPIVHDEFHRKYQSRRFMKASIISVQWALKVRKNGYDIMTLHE

T3: Clb5 (Saccharomyces cerevisiae) (UniProt P30283)
T3 sequence (looked up): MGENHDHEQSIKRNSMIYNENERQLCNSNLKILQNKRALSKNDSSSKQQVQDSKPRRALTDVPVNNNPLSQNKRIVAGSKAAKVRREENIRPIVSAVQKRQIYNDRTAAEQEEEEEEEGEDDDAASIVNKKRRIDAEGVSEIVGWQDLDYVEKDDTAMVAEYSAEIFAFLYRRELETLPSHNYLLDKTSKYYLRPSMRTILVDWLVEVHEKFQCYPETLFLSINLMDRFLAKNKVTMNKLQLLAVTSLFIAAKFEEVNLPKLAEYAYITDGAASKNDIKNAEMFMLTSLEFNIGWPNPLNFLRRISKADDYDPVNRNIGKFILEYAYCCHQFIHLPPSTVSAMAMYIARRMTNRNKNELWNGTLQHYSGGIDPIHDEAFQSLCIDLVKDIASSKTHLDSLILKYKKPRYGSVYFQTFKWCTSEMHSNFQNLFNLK

T4: Clb3 (Saccharomyces cerevisiae) (UniProt P24870)
T4 sequence (looked up): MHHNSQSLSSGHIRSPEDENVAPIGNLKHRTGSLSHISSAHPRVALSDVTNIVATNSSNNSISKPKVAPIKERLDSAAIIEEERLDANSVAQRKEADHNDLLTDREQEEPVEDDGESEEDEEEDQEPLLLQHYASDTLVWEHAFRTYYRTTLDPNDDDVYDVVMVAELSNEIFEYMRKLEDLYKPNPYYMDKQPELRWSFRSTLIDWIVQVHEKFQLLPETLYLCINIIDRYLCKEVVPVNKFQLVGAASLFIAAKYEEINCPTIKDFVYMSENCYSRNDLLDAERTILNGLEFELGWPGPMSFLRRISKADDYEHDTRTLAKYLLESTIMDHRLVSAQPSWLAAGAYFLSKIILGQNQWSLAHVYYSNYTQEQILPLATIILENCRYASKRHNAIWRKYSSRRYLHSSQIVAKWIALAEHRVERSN

T5: Cln1 (Saccharomyces cerevisiae) (UniProt P20437)
T5 sequence (looked up): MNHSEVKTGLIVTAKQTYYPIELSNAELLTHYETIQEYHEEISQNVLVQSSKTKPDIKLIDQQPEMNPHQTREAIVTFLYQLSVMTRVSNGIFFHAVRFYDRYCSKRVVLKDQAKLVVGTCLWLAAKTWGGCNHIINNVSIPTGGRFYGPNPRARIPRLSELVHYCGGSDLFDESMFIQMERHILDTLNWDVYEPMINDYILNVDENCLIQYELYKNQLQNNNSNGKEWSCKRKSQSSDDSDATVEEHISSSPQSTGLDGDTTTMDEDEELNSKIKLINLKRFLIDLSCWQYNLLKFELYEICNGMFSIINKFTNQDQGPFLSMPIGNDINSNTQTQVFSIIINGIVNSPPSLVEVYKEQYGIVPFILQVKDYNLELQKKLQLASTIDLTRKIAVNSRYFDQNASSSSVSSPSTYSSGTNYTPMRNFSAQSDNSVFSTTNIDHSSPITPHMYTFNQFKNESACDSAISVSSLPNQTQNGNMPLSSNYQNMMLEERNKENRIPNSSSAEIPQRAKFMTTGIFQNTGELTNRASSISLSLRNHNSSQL

T6: Fkh2 (Saccharomyces cerevisiae) (UniProt P41813)
T6 sequence (looked up): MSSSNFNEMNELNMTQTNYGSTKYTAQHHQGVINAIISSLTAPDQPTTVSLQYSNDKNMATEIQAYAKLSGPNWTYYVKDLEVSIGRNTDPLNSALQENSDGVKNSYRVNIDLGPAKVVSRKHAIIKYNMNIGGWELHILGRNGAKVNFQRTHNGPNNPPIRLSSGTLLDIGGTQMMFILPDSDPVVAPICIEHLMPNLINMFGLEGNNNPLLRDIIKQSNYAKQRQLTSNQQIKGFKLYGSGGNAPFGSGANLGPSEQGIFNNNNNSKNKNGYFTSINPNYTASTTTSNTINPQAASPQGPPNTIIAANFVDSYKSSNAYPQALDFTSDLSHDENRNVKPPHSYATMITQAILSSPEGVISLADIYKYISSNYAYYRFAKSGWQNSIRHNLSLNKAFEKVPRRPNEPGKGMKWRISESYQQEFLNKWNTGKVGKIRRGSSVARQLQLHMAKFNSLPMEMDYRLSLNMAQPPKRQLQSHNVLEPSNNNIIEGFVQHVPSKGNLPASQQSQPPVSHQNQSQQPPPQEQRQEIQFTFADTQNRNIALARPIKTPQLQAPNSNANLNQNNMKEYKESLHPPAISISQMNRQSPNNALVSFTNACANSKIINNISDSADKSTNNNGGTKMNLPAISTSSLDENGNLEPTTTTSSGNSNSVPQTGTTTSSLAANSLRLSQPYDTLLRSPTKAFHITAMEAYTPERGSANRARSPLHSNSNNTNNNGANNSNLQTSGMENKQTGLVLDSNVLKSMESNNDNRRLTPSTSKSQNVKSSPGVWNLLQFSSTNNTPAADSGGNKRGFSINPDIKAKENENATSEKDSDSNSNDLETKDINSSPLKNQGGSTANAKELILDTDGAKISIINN

T7: Fkh1 (Saccharomyces cerevisiae) (UniProt P40466)
T7 sequence (looked up): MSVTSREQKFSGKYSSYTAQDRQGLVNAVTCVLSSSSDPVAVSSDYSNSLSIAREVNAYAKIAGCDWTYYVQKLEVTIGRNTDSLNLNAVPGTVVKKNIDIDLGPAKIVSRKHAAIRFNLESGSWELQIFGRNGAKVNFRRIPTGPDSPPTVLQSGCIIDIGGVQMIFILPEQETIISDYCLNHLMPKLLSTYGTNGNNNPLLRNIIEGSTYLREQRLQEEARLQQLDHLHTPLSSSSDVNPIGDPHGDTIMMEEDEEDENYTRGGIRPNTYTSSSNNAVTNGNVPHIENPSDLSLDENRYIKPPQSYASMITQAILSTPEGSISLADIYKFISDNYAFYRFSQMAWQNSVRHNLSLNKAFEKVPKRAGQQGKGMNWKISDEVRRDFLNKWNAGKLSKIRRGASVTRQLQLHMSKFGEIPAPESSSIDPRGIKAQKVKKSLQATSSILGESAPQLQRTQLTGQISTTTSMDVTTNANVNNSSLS


Assays:
Assay in all cases: anti-FLAG co-IP, LC-MS/MS
[1] = biological target: T1, Cks1 (Saccharomyces cerevisiae)
[2] = biological target: Cdc28 (Saccharomyces cerevisiae) (UniProt P00546)
[3] = biological target: T2, Clb2 (Saccharomyces cerevisiae)
[4] = biological target: T3, Clb5 (Saccharomyces cerevisiae)
[5] = biological target: T4, Clb3 (Saccharomyces cerevisiae)
[6] = biological target: T5, Cln1 (Saccharomyces cerevisiae)
[7] = biological target: T6, Fkh2 (Saccharomyces cerevisiae)
[8] = biological target: T7, Fkh1 (Saccharomyces cerevisiae)

| binding [1] | binding [2] | binding [3] | binding [4] | binding [5] | binding [6] | binding [7] | binding [8] | Binder |
| --- | --- | --- | --- | --- | --- | --- | --- | --- |
| binds | binds | – | – | – | – | – | – | Cln1 (protein, Saccharomyces cerevisiae, UniProt P20437 1-546, looked up) MNHSEVKTGLIVTAKQTYYPIELSNAELLTHYETIQEYHEEISQNVLVQSSKTKPDIKLIDQQPEMNPHQTREAIVTFLYQLSVMTRVSNGIFFHAVRFYDRYCSKRVVLKDQAKLVVGTCLWLAAKTWGGCNHIINNVSIPTGGRFYGPNPRARIPRLSELVHYCGGSDLFDESMFIQMERHILDTLNWDVYEPMINDYILNVDENCLIQYELYKNQLQNNNSNGKEWSCKRKSQSSDDSDATVEEHISSSPQSTGLDGDTTTMDEDEELNSKIKLINLKRFLIDLSCWQYNLLKFELYEICNGMFSIINKFTNQDQGPFLSMPIGNDINSNTQTQVFSIIINGIVNSPPSLVEVYKEQYGIVPFILQVKDYNLELQKKLQLASTIDLTRKIAVNSRYFDQNASSSSVSSPSTYSSGTNYTPMRNFSAQSDNSVFSTTNIDHSSPITPHMYTFNQFKNESACDSAISVSSLPNQTQNGNMPLSSNYQNMMLEERNKENRIPNSSSAEIPQRAKFMTTGIFQNTGELTNRASSISLSLRNHNSSQL |
| – | binds | binds | binds | binds | binds | – | – | Cks1 (protein, Saccharomyces cerevisiae, UniProt P20486 1-150, looked up) MYHHYHAFQGRKLTDQERARVLEFQDSIHYSPRYSDDNYEYRHVMLPKAMLKVIPSDYFNSEVGTLRILTEDEWRGLGITQSLGWEHYECHAPEPHILLFKRPLNYEAELRAATAAAQQQQQQQQQQQQQQQQHQTQSISNDMQVPPQIS |
| – | – | – | – | – | – | binds | binds | Fhl1 (protein, Saccharomyces cerevisiae, UniProt P39521 1-936, looked up) MDGEMAIIESSNHVGTSSPTTETQFTIDSSALKDQETKESITNSPTSEVPIETKLPKSSDIVTEEKHPQNTTTDIENEVENPVTDDNGNLKLELPDNLDNADFSKLLEFDAKNDEALFNSNELLSHTMDPVNNIDLTHDHSREVSSKEDINIEPVNPDEDEREKTQDNTAAVKTEGIRNSEDTSIQKDEPTADAIYTDVHKLSVNKDTETLPTLVDEKNNMLHMRNNSITPIMFQQHELVGQPPQNTVTENNSTDAETTQRKLSEPIDASLPLPNEQPTIFAYARLDFQSFTFYVQTLHAIIGRRSENDFSHKVDVNLGPSKSISRRHAQIFYNFGTGRFELSIIGKNGAFVDDIFVEKGNTVPLRNKTKIQIGQIPFQFILPEQERNDDSKSPENADIAESEINTRNLKKNEPKSKKKITTGAKPKKAQTKPAVKKEKKPPKIPKKVYTLEEIPVEYRTKPTVSYSAMLTTCIRKYSTAKGMSLSEIYAGIRELFPYYKYCPDGWQSSVRHNLSLNKSFRKVSKEGKGWLWGLDEEYIAERERQKKKQSEIAVAKAQAAQLKLEQQQHKLQQVPQRGKKDIVSQRSNVNARKQNISQTLAANRAASNRKNTASDNQRTMKYLQEQLVILTRDRKGLSKQVIAAILTQALAMTINQVTQAAKNKGITGNPLTALMDKNPQHLNLILAAAVNAATAKVTKGEVKQLVNPETTAAAALAAKAQHSKPIRQPIVQTPHVPDRPPSQLSASASSHPNNYLHDKQPGSFDPSSLSRFFQPRQNARATSSVAATSVPAAASQNVDAQPKPKPAQDNDLESESGTSSSSSSSSESGSESDSGSDDGSASGSGDNSSTSSESESESDSGSEVDEKNNKNEKIDSESIKNNESKDDIPSKDENSSNDNREISKTDEEGHDSKRRKVSEDINEGITEVNVSLEEKL |
